Laboratory results as given in publication PMC6011117, “Comparative Evaluation of Radioiodine and Technetium-Labeled DARPin 9_29 for Radionuclide Molecular Imaging of HER2 Expression in Malignant Tumors” (Contrast Media & Molecular Imaging, 2018).
These are yes or no findings as the source states them, for the method shown. Some binding calls cover weakened binding; strength is not graded here.

Target: human epidermal growth factor receptor 2 (HER2) (human (endogenous in SKOV-3, BT474, DU145)) (UniProt P04626)
Test: radioligand binding; cell-bound activity on HER2-expressing SKOV-3, BT474 and DU145 cells in dishes; labelled conjugate at 10 nM, 1 h at 37°C; control dishes presaturated for 30 min with a 100-fold excess (1000 nM) of unlabeled DARPin 9_29 or other agents; only the binder purified

B1: [125I]I-DARPin 9_29 (designed binder)
chain: MDLGKKLLEAARAGQDDEVRILMANGADVNAHDFYGITPLHLAANFGHLEIVEVLLKHGADVNAFDYDNTPLHLAADAGHLEIVEVLLKYGADVNASDRDGHTPLHLAAREGHLEIVEVLLKNGADVNAQDKFGKTAFDISIDNGNEDLAEILQKLAAALE
modifications: iodine-125 label attached to tyrosine (direct radioiodination)
notes: designed ankyrin repeat protein 9_29 against HER2; also called radioiodinated DARPin 9_29; source: E. coli BL21(DE3), purified (HisTrap HP, MonoQ); directly radioiodinated with chloramine T, purified on NAP-5; not shown: His6, C-terminal, kept
- binding: binds

B2: [99mTc]Tc(CO)3-DARPin 9_29 (designed binder)
chain: B1 chain
modifications: [99mTc]Tc(CO)3 chelated by the C-terminal hexahistidine tag
notes: designed ankyrin repeat protein 9_29 against HER2; also called 99mTc(CO)3-DARPin 9_29; [99mTc]Tc-DARPin 9_29; source: E. coli BL21(DE3), purified (HisTrap HP, MonoQ); labelled with technetium-99m tricarbonyl, purified on NAP-5; not shown: His6, C-terminal, kept
- binding: binds

B3: DARPin 9_29 (unlabeled) (designed binder)
chain: B1 chain
- binding: binds
